From the supplement of paper PMC10849652
Some of the results follow.

Protein sequences, listed by entry. Tags and fused reporters are not part of them. Lines headed by an entry give the natural chain unless they say otherwise; changes in a name come on top.
UniProt Q6UUV7: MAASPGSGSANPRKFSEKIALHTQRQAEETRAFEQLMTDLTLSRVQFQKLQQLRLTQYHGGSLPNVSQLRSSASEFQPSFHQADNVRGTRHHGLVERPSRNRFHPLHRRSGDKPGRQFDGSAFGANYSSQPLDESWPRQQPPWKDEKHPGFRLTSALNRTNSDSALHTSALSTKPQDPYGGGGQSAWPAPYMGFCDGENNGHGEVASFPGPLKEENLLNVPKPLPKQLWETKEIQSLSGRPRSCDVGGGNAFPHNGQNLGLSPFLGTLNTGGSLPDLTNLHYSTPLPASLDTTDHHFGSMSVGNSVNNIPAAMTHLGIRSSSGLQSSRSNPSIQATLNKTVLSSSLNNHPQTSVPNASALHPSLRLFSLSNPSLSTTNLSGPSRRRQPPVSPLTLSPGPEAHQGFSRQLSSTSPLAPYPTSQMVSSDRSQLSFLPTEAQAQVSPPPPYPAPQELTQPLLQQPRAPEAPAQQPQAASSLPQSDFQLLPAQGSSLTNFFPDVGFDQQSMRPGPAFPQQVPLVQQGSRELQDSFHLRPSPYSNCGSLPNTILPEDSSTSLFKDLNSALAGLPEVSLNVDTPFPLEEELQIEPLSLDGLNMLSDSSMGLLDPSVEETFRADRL
UniProt P32929, whole entry, looked up: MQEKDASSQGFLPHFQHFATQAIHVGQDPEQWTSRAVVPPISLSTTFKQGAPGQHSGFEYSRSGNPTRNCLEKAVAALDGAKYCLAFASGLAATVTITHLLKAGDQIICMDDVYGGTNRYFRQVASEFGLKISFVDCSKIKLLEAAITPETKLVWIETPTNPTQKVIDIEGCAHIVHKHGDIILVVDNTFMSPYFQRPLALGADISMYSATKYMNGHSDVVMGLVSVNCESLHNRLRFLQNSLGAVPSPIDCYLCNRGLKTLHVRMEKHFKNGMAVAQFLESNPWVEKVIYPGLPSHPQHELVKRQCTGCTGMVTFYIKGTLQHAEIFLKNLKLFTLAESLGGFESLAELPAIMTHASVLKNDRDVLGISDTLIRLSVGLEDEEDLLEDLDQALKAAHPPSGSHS
UniProt O75718: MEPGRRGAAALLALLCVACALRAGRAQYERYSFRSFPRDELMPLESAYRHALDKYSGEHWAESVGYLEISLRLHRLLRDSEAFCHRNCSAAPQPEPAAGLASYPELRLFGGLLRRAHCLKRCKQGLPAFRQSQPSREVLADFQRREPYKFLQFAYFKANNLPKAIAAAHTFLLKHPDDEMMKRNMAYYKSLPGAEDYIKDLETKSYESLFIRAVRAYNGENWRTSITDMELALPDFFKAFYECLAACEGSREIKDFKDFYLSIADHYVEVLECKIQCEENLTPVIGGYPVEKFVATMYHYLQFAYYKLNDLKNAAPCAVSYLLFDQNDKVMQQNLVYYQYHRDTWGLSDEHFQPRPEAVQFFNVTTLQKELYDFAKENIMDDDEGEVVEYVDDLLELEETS
UniProt Q9NTM9: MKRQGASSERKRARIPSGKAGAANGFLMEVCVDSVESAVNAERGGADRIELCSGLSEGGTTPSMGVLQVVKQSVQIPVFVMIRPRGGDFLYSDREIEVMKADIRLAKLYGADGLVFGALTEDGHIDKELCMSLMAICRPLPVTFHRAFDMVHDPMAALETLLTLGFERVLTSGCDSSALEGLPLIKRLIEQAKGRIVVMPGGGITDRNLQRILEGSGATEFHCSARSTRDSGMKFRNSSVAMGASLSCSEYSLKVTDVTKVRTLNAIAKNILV
UniProt P08311: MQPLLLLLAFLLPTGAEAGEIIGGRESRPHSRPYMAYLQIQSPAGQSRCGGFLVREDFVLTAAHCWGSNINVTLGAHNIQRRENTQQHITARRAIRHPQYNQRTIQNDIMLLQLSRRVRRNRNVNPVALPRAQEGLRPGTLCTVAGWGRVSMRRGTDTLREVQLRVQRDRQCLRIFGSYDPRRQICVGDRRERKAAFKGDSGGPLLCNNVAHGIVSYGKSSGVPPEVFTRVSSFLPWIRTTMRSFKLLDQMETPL
UniProt P01036: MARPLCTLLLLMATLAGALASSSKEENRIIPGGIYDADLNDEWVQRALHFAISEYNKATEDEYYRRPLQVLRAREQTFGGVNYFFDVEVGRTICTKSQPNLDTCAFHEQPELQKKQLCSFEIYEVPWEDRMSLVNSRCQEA
UniProt Q9UJA2: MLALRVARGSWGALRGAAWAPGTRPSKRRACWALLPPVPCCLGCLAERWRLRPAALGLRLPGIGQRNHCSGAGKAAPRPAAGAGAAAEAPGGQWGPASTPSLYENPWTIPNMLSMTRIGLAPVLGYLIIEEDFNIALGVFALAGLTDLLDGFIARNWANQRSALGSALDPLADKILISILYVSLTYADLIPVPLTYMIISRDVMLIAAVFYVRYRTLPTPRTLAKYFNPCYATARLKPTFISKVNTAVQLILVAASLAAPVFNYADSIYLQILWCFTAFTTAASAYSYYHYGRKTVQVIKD
UniProt Q9UKG9: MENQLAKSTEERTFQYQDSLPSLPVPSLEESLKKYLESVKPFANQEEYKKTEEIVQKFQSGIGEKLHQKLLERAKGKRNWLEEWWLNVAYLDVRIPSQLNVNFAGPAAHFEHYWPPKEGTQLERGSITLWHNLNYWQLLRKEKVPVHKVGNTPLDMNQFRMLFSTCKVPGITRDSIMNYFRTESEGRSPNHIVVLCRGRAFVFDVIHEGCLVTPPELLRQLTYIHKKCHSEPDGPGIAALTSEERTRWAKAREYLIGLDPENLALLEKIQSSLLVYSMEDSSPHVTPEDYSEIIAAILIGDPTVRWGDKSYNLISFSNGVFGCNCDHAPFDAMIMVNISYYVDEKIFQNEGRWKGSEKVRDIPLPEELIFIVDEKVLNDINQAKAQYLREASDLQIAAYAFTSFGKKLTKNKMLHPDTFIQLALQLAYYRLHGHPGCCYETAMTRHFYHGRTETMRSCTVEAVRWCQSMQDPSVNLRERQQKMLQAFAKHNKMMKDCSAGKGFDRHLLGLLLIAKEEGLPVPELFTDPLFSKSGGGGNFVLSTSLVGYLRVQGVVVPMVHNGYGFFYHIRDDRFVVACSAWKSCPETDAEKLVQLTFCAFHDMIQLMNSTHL
UniProt Q9BQA9: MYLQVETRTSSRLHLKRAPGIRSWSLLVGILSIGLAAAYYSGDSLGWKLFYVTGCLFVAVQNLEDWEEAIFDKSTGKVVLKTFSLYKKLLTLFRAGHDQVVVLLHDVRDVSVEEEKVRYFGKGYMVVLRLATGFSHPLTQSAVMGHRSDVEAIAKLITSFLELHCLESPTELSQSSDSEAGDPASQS
UniProt P00167, whole entry, looked up: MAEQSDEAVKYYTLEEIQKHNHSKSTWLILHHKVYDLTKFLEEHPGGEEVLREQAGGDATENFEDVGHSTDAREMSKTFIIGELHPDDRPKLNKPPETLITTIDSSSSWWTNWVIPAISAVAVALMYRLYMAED
UniProt Q8IWT3: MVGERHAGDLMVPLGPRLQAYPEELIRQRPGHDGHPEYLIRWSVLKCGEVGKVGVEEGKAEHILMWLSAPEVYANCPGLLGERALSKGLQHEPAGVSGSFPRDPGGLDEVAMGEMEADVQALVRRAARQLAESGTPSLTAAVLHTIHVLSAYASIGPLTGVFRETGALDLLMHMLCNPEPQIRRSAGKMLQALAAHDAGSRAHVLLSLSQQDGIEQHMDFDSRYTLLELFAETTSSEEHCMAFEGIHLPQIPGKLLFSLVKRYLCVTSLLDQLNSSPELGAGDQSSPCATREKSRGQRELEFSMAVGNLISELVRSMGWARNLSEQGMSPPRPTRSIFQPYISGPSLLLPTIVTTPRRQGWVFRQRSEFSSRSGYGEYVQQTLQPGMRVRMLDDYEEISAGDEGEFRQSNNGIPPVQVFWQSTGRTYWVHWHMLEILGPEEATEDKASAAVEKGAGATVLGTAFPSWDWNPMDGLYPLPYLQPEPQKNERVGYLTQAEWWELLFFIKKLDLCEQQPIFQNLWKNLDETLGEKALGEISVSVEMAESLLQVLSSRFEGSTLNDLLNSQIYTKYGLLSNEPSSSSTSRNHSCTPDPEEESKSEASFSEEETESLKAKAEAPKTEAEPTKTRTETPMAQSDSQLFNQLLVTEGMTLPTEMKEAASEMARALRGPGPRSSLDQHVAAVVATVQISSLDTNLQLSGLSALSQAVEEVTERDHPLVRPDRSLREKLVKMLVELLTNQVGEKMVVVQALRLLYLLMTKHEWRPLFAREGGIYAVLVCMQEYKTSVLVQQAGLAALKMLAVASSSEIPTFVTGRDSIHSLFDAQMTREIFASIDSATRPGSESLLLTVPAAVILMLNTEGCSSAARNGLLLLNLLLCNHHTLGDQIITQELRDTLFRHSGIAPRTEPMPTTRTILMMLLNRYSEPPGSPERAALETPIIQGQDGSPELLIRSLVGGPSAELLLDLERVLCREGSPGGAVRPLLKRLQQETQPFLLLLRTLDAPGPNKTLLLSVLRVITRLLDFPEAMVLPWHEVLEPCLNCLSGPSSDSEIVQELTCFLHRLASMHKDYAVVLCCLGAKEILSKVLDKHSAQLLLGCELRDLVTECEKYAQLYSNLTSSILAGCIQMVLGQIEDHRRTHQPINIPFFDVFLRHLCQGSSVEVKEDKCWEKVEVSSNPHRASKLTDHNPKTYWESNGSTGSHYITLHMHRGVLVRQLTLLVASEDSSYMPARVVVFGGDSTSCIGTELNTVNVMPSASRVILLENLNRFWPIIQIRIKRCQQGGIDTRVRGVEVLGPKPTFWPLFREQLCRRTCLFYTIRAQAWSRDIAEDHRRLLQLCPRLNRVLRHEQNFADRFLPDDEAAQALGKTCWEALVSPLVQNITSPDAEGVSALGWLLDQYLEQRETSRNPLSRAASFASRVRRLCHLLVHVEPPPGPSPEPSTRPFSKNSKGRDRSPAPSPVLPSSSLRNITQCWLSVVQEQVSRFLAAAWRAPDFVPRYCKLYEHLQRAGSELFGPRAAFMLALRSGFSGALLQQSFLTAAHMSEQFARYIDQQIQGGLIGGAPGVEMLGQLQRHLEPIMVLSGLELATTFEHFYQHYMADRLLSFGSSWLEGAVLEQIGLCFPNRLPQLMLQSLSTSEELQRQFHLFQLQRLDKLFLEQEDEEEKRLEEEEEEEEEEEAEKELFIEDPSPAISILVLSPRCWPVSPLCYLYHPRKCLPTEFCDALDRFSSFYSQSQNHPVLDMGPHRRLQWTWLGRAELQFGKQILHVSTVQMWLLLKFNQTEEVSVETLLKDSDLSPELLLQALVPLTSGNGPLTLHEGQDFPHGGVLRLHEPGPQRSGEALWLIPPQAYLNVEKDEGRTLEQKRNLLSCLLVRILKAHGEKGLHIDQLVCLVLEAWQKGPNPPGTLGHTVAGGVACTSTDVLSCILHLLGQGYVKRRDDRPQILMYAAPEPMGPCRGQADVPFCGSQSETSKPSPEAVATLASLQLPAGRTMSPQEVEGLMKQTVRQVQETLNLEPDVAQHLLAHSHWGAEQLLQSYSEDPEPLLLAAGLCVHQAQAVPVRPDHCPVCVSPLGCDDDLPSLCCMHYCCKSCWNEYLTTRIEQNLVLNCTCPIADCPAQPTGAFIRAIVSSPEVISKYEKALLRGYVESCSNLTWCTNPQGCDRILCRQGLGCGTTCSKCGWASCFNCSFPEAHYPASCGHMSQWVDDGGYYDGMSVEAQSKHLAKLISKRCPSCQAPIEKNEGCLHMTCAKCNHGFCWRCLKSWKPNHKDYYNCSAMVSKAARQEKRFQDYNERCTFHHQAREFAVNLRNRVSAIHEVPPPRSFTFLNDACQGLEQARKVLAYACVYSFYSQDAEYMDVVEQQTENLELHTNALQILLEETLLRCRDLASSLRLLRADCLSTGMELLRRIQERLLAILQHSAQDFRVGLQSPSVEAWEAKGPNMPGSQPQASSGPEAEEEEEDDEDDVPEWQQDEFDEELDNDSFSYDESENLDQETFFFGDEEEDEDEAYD
UniProt Q9NSA3: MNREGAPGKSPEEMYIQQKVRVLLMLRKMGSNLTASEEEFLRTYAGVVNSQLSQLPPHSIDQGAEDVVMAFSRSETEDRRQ
UniProt Q96HD1: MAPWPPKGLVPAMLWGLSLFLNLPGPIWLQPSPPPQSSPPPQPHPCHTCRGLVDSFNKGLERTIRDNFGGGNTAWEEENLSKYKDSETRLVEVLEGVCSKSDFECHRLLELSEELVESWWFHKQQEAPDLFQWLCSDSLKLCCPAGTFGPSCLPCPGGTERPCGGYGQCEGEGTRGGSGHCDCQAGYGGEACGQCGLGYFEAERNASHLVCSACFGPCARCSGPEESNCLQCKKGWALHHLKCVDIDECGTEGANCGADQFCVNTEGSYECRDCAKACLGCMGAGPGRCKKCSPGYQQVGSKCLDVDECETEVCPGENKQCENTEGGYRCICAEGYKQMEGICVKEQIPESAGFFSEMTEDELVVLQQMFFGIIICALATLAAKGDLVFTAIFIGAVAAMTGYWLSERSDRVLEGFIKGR
UniProt Q96DE9: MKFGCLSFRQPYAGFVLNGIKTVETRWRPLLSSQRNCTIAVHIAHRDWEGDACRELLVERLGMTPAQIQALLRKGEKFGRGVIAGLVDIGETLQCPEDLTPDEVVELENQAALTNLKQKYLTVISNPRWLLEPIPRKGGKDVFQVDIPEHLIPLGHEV

Key:
Assay in all cases: log2 fold change, soluble protein after heating vs DMSO (PISA); higher = thermal stabilisation; K562 lysate, 10 uM; active = over 0.2 and 3.5 SD of the protein, either way, in both replicates (recomputed)
[1] = compound: NCC(=O)Nc1ccc(-n2nc(C(F)(F)F)cc2-c2ccc3c(ccc4ccccc43)c2)cc1
In short: (§1)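 K562 pellets were dounce-homogenised in PBS pH 7.4 with 1 mM MgCl2, and the crude extract at 1 mg/mL protein was treated with 10 μM compound for 30 min. Aliquots were heated for 3 min across 48°C-58°C, pooled, and brought to 0.5% NP-40 at 4°C; soluble protein was the supernatant after 21,000xg for 90 min. Soluble protein was quantified by TMTpro 16plex LC-MS/MS with channel sums equalised, and reported as log2 fold change in thermal stability against DMSO controls, with values from duplicates.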

vorinostat = compound: O=C(CCCCCCC(=O)Nc1ccccc1)NO [vorinostat]
In short: as §1

silmitasertib = compound: O=C(O)c1ccc2c(c1)nc(Nc1cccc(Cl)c1)c1ccncc12 [silmitasertib]
In short: as §1

[2] = compound: O=C1NC(=O)C(c2cnc3ccccn23)=C1c1cn2c3c(cc(F)cc13)CN(C(=O)N1CCCCC1)CC2
In short: as §1

entospletinib = compound: c1cn2cc(-c3ccc4cn[nH]c4c3)nc(Nc3ccc(N4CCOCC4)cc3)c2n1 [entospletinib]
In short: as §1

Measured: log2 fold change

CXorf38 (UniProt Q8TB03)
inactive: [1] 0.092 | silmitasertib -0.013 | [2] 0.042 | entospletinib -0.073
active: vorinostat -0.227

CWC22 (UniProt Q9HCG8)
inactive: [1] -0.012 | vorinostat -0.156 | silmitasertib 0.032 | [2] -0.016 | entospletinib 0.015

CTU2 (UniProt Q2VPK5)
inactive: [1] -0.018 | vorinostat -0.081 | silmitasertib 0.021 | [2] -0.022 | entospletinib 0.006

CRKL (UniProt P46109)
inactive: [1] 0.005 | vorinostat 0.121 | silmitasertib -0.004 | [2] 0.024 | entospletinib -0.001

CTNNA1 (UniProt P35221)
inactive: [1] -0.002 | vorinostat -0.003 | silmitasertib -0.021 | [2] 0.033 | entospletinib 0.024

CRTC3 (UniProt Q6UUV7)
inactive: [1] 0.01 | vorinostat -0.018 | silmitasertib -0.034 | [2] -0.064 | entospletinib -0.002

CT47B1 (UniProt P0C2W7)
inactive: [1] 0.116 | vorinostat 0.046 | silmitasertib 0.026 | [2] -0.06 | entospletinib 0.051

CYB561 (UniProt P49447)
inactive: [1] 0.065 | vorinostat -0.085 | silmitasertib -0.203 | [2] -0.008 | entospletinib -0.05

Taken from the results shown (4 entries):
CTU2 (UniProt Q2VPK5)
inactive: [1] -0.018 | vorinostat -0.081 | silmitasertib 0.021 | [2] -0.022 | entospletinib 0.006

CRKL (UniProt P46109)
inactive: [1] 0.005 | vorinostat 0.121 | silmitasertib -0.004 | [2] 0.024 | entospletinib -0.001

CTNNA1 (UniProt P35221)
inactive: [1] -0.002 | vorinostat -0.003 | silmitasertib -0.021 | [2] 0.033 | entospletinib 0.024

CRTC3 (UniProt Q6UUV7)
inactive: [1] 0.01 | vorinostat -0.018 | silmitasertib -0.034 | [2] -0.064 | entospletinib -0.002

Continued:

CRK (UniProt P46108)
inactive: [1] 0.023 | vorinostat 0.143 | silmitasertib -0.029 | [2] -0.014 | entospletinib 0

CUX1 isoform 3 (UniProt P39880)
inactive: [1] 0.008 | vorinostat 0.005 | silmitasertib 0.025 | [2] -0.022 | entospletinib -0.014

CYFIP2 (UniProt Q96F07)
inactive: [1] -0.04 | vorinostat -0.041 | silmitasertib 0.015 | [2] 0.013 | entospletinib 0.005

CTH (UniProt P32929)
inactive: [1] 0.059 | vorinostat 0.141 | silmitasertib -0.052 | [2] -0.011 | entospletinib 0.02

CRTAP (UniProt O75718)
inactive: [1] -0.021 | vorinostat 0.054 | silmitasertib 0.001 | [2] -0.07 | entospletinib -0.002

CUTC (UniProt Q9NTM9)
inactive: [1] -0.017 | vorinostat 0.132 | silmitasertib -0.062 | [2] 0 | entospletinib 0.015

CSNK2B (UniProt P67870)
active: silmitasertib 0.595
inactive: [1] 0.2 | vorinostat -0.016 | [2] 0.023 | entospletinib 0.241

CYLD (UniProt Q9NQC7)
inactive: vorinostat -0.242 | silmitasertib 0.273 | [2] 0.06

CTSF (UniProt Q9UBX1)
inactive: vorinostat 0 | silmitasertib 0.104

CROCC2 (UniProt H7BZ55)
inactive: vorinostat 0.094 | silmitasertib -0.001 | [2] 0.044 | entospletinib 0.009

CTDSP1 (UniProt Q9GZU7)
inactive: [2] 0.017

CSNK1G1 (UniProt Q9HCP0)
inactive: vorinostat 0.203 | silmitasertib -0.105 | entospletinib 0.106

CRYM (UniProt Q14894)
inactive: [1] 0.006 | [2] -0.113 | entospletinib -0.009

CSNK2A1 (UniProt P68400)
inactive: [1] 0.15 | vorinostat 0.057 | [2] -0.046 | entospletinib 0.213

CTCFL isoform 7 (UniProt Q8NI51)
inactive: [2] 0.006 | entospletinib -0.179

CTSG (UniProt P08311)
inactive: vorinostat 0.002 | silmitasertib -0.136 | [2] -0.208

CRIP2 isoform 2 (UniProt P52943)
inactive: vorinostat 0.353 | silmitasertib 0.544 | [2] 0.074

CST4 (UniProt P01036)
inactive: vorinostat -0.015 | silmitasertib -0.25 | entospletinib -0.159

CRAMP1 (UniProt Q96RY5)
inactive: [1] -0.166 | entospletinib -0.077

CRLS1 (UniProt Q9UJA2)
active: vorinostat -0.572
inactive: silmitasertib 0.172 | [2] 0.036

CROT isoform 3 (UniProt Q9UKG9)
inactive: vorinostat 0.077 | silmitasertib 0.018 | [2] 0.045 | entospletinib 0.105

CREM isoform 1 (UniProt Q03060)
inactive: [2] -0.04

CREB3L2 (UniProt Q70SY1)
inactive: [1] -0.089 | vorinostat 0.139 | silmitasertib -0.007 | entospletinib 0.026

CSGALNACT2 (UniProt Q8N6G5)
inactive: vorinostat 0.151 | silmitasertib -0.04 | [2] 0.027

CTDNEP1 (UniProt O95476)
inactive: [2] -0.057

CTSS (UniProt P25774)
inactive: vorinostat 0.159 | silmitasertib -0.052 | entospletinib -0.002

CST1 (UniProt P01037)
inactive: vorinostat 0.059 | silmitasertib -0.214 | [2] 0.117 | entospletinib -0.157

CTTNBP2NL (UniProt Q9P2B4)
inactive: [1] 0 | [2] -0.001 | entospletinib 0.059

CYBC1 (UniProt Q9BQA9)
inactive: vorinostat 0 | silmitasertib 0.024 | [2] 0.015 | entospletinib -0.122

CYB5A (UniProt P00167)
inactive: vorinostat 0.134 | silmitasertib -0.07 | [2] 0.013 | entospletinib -0.086

CUL9 (UniProt Q8IWT3)
inactive: vorinostat -0.11 | silmitasertib 0.047 | [2] 0.23

CXCL14 (UniProt O95715)
inactive: [1] 0.24 | entospletinib 0.033

CTRB2 (UniProt Q6GPI1)
inactive: [1] -0.133 | entospletinib -0.022

CRISP3 isoform 3 (UniProt P54108)
inactive: vorinostat 0.229 | silmitasertib -0.277

CTNNBIP1 (UniProt Q9NSA3)
inactive: vorinostat 0.072 | silmitasertib -0.127

CTNS isoform 2 (UniProt O60931)
inactive: [1] -0.099 | [2] 0.02 | entospletinib 0.073

CSRNP2 (UniProt Q9H175)
inactive: vorinostat -0.02 | silmitasertib 0.097

CSNK1D (UniProt P48730)
inactive: [1] 0.002 | [2] -0.002 | entospletinib -0.076

CSRP2 (UniProt Q16527)
inactive: [2] 0.016 | entospletinib -0.132

CRELD1 isoform 2 (UniProt Q96HD1)
inactive: [1] -0.045 | vorinostat -0.014 | silmitasertib -0.05 | entospletinib -0.039

CSDE1 isoform 3 (UniProt O75534)
inactive: [2] -0.1

CXorf40B (UniProt Q96DE9)
inactive: [1] -0.099 | [2] 0.116

CROCCP2 (UniProt Q86T23)
inactive: vorinostat 0.065 | silmitasertib 0.086 | [2] -0.147 | entospletinib 0.026

CSAD isoform 3 (UniProt Q9Y600)
inactive: vorinostat 0.031 | silmitasertib 0.075 | [2] 0.039

CS (UniProt F8VU34)
inactive: vorinostat 0.053 | silmitasertib 0.008

CWC25 (UniProt Q9NXE8)
inactive: [1] 0.052 | [2] 0.157 | entospletinib 0
